Patent US9254274B2, “Method of treating Tourette'S disorder with GABA-aminotransferase inactivators” (CATALYST PHARMACEUTICAL PARTNERS, priority 2012, dated 2016)

Test system: GABAA receptor
Assay: [^3H]muscimol competition binding, rat brain synaptic membranes
Conditions: 1 mM cold GABA
Protocol: GABAA and GABAB binding assays were performed using rat brain synaptic membranes of cortex and the central hemispheres from adult male Sprague-Dawley rats with tissue preparation as earlier described (Ransom, R. W.; Stec, N. L. Cooperative modulation of [^3H]MK-801 binding to the N-methyl-D-aspartate receptor-ion channel complex by L-glutamate, glycine, and polyamines. J. Neurochem. 1988, 51, 830-836). On the day of the assay, the membrane preparation was quickly thawed, suspended in 40 volumes of ice-cold 50 mM Tris-HCl buffer (pH 7.4) using an UltraTurrax homogenizer and centrifuged at 48,000 g for 10 min at 4° C. This washing step was repeated four times. The final pellet was resuspended in incubation buffer and the binding assay carried out as detailed below.
Rat brain synaptic membranes (100 μg protein/aliquot) prepared above in Tris-HCl buffer (50 mM, pH 7.4) were incubated with [^3H]muscimol (5 nM) and 100 μM of compound 2 at 0° C. for 60 min in a total volume of 250 μl.

NCCCC(=O)O [GABA, gamma aminobutyric acid]
inhibition of radioligand binding at GABAA receptors: inhibited radioligand binding as expected
